At least one structure is not confirmed: it was looked up by name or label, or the drawing left a doubt.
How the values were obtained:
[1] = test system: inclusion of exon 7 in SMN2 mRNAs; assay: Exon 7 inclusion BLA reporter assay in NSC34 cell line; type: cell-based; conditions: Table 13 summary
Description: To measure changes in the inclusion of exon 7 in SMN2 mRNAs, another NSC34 cell line was used that stably transfected with a reporter construct which expresses BLA when exon 7 is included in the SMN2 minigene mRNAs. 5-(N-ethyl-N-isopropyl)-amiloride (EIPA) was used as a positive control for this assay. Data for tis assay is illustrated in FIG. 30.

rats = conditions: Lamotrigine-resistant amygdala-kindled rats; cited from earlier work

| SMILES | Exon 7 inclusion (summary YES/NO) [1] | effectiveness in the LRM (marketed AED) (rats) |
| --- | --- | --- |
| Cc1nc(C)c(C(C)CC(N)=O)cc1C(C)CC(N)=O (mixture of isomers) [DA] | NO |  |
| CCOc1ccc(C(C)CC(N)=O)cc1 (racemic) [CA] | NO |  |
| CC(CC(N)=O)c1cnccn1 (racemic) [DC] | NO |  |
| CCCC(CCC)C(=O)O [valproate] |  | effective |
| Cc1cnc(C(C)CC(N)=O)c(C)n1 (racemic) [DD] | NO |  |

Source: patent publication US12486218B2, “Compounds advantageous in the treatment of central nervous system diseases and disorders” (AurimMed Pharma, Inc., priority 2008, dated 2025)
